# Patent publication US12449415B2, “Diagnostics” (Queen Mary University of London, priority 2014, dated 2025)
# At least one compound was matched to its structure with a doubt left.
# Tested on: heparinised whole blood
# Experiment: Glutamate biosensor recording of glutamate release in stimulated whole blood
# Type: cell-based, human
# Details: therapeutic plasma concentration, incubated 5 minutes before addition of E. coli; FIG. 1D
smiles,measurement,value
C[C@@H]1C[C@H]2[C@@H]3CCC4=CC(=O)C=C[C@]4(C)[C@@]3(F)[C@@H](O)C[C@]2(C)[C@@]1(O)C(=O)CO [dexamethasone],effect on glutamate release stimulated by opsonised E. coli,reduced glutamate release
